# PubChem BioAssay AID504861 (Broad Institute, 2011)
# Among all 1,200 compounds or so, about 290 (24%) were called active. Inconclusive results (about 3%) are left out.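 Rule for the calls: active = compounds lowering cell viability signal with fitted half-maximal concentration at most ten times their highest tested concentration; inconclusive = flat fit with 30 to 70% signal loss, or poor fit; inactive = the rest.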 The entries are a selection whose mix differs from that of the whole data set. Measured potencies and affinities stand elsewhere.
# Test: HEK293T cell viability reduction, dose response, cytotoxicity control for LMP1 NF-kB inhibitor project, CellTiter-Glo luminescence, cherry-picks (AID 504861)
# Conditions: CellTiter-Glo ATP luminescence, 48 h; at 26 µM (top of the series)
row,Compound,"activity change, negative = cytotoxicity"
1,CN1CCc2cc3c(cc2[C@H]1[C@@H]1OC(=O)c2c1ccc1c2OCO1)OCO3,inactive: 9.64%
2,COC(=O)C1C2CC[C@@H](CC1OC(=O)c1ccccc1)N2 (stereo not given in full),inactive: 0.895%
3,NC(Cc1ccc(O)cc1)C(=O)NN=Cc1ccc(N(CCCl)CCCl)cc1 (stereo not given),inactive: 33.2%
4,CCN1C[C@]2(C)CC[C@H](O)[C@]34C1[C@H](C[C@H]23)[C@@]1(O)C[C@H](OC)[C@H]2C[C@@H]4[C@@H]1C2O (stereo not given in full),inactive: 14.4%
5,O=[N+]([O-])c1ccc(CN2CC=C(c3ccccc3)CC2)cc1,inactive: 0.043%
6,COc1ccc(O)c2c(=O)c3c(OC)cc4c(c3oc12)C1C=COC1O4 (stereo not given),inactive: 8.89%
7,COc1c2c(cc3c1OCO3)CCN(C)C2,inactive: -3.48%
8,CCn1c(O)c(C=Nc2ccc(N3CCOCC3)c(Br)c2)c(=O)n(CC)c1=S,inactive: 12.2%
9,CC(=O)c1c(C)n(C2CCCCC2)c2ccc(O)cc12,inactive: 3.28%
10,COC(=O)C1=C(c2ccc3ccccc3c2)C[C@@H]2CC[C@H]1N2C(=O)N1CCC(O)CC1,inactive: -0.166%
11,N#Cc1ncc(N=Cc2ccc(N(CCCl)CCCl)cc2)s1,inactive: 11.9%
12,COC12C(COC(N)=O)C3=C(C(=O)C(C)=C(N)C3=O)N1CC1C2N1C (stereo not given),inactive: -2.08%
13,CCOC(=O)CC(NC(=O)C(Cc1ccc(N(CCCl)CCCl)cc1)NC(C)=O)C(=O)OCC (stereo not given),inactive: 3.33%
14,CC1(CCCc2ccc(N(CCCl)CCCl)cc2)NC(=O)NC1=O (stereo not given),inactive: -0.088%
15,CC1(C(=O)O)CC12c1ccccc1-c1ccccc12 (stereo not given),inactive: 12.3%
16,O=C(O)CCCOc1ccc(Cl)cc1Cl,inactive: 1.24%
17,O=C(NN=Cc1ccc(N(CCCl)CCCl)cc1Cl)c1cccnc1,inactive: 4.39%
18,CN1[C@@H]2CC[C@H]1CC(OC(=O)C1C=Nc3ccccc31)C2 (stereo not given in full),inactive: 8.32%
19,C[C@@H]1CN(C2CCC(C#N)(c3ccc(F)cc3)CC2)CC[C@]1(C(=O)O)c1ccccc1 (stereo not given in full),inactive: 9.51%
20,CCC(=O)O[C@H]1CC[C@H]2[C@@H]3CCC4=CC(=O)CC[C@]4(C)[C@H]3CC[C@]12C,inactive: 10.4%

row,Compound,"activity change, negative = cytotoxicity"
1,Fc1ccc(C(OCCN2CCCC2)c2ccc(F)cc2)cc1,inactive: -7.97%
2,O=C(NN=Cc1ccc(N(CCCl)CCCl)cc1)c1cccnc1,inactive: 6.26%
3,COc1ccc(CCNCc2cccn2C)cc1,inactive: 4.44%
4,O=C(N/N=C/C1C(=O)NC(=S)N(c2ccccc2)C1=O)c1cc(Br)c(O)c(Br)c1 (stereo not given),inactive: 2.36%
5,COc1ccc(OC)c([C@@H](O)[C@H](C)NC(C)(C)C)c1,inactive: 13.9%
6,COC(=O)C1=C(c2ccc(F)cc2OCc2ccccc2)C[C@@H]2CC[C@H]1N2C(=O)NC(C)C,inactive: 0.414%
7,C[N+]1(C)[C@@H]2CC[C@H]1CC(OC(=O)C(CO)c1ccccc1)C2 (stereo not given in full),inactive: 24.1%
8,O=C(N/N=C/c1c(O)n(C2CCCCC2)c(=S)[nH]c1=O)c1ccccc1O,inactive: -0.827%
9,CC(C)c1c(CN(C)C(C)Cc2ccccc2)n(C)n(-c2ccccc2)c1=O (stereo not given),inactive: 2.33%
10,CCN(CC)CCCN=Cc1c(O)n(Cc2ccc(F)cc2)c(=O)[nH]c1=O,inactive: 3.66%
11,N[C@@H](Cc1ccc(N(CCCl)CCCl)cc1)C(=O)O,inactive: 0.381%
12,O=c1[nH]c(CN2CC=C(c3ccccc3)CC2)nc2cc(C(F)(F)F)ccc12,inactive: 5.12%
13,COc1cccc(-c2nc3ccc(N4CCN(C)CC4)cc3[nH]2)c1,inactive: 4.33%
14,C#C[C@]1(O)CC[C@H]2[C@@H]3CCC4=CC(=O)CC[C@]4(C)[C@H]3CC[C@@]21C,inactive: 10.7%
15,Cc1cc(C)n(-c2ccc(NN=C(C#N)C#N)cc2)n1,inactive: -0.783%
16,Cc1nc2ccccc2n1C1CCN(Cc2nnnn2CCc2ccccc2)CC1,inactive: 11.4%
17,O=c1cccc2n1CC1CC2CN(Cc2c(F)cccc2Cl)C1 (stereo not given),inactive: 7.42%
18,Cc1cccc(CN2CCN(Cc3ccc(Cl)cc3)CC2)c1,inactive: 25.9%
19,CC(=O)N(C)C1=Nc2ccc(Cl)cc2C(c2ccccc2)=[N+]([O-])C1,inactive: 5.7%
20,CCN1C[C@]2(COC)CC[C@H](OC)[C@@]34C1[C@]1(OCO[C@@]15C[C@H](OC)[C@H]1C[C@@H]3[C@@H]5[C@H]1OC)[C@@H](O)[C@H]24,inactive: -1.87%

# Copied from the list.
# In activity change, negative = cytotoxicity, C#C[C@]1(O)CC[C@H]2[C@@H]3CCC4=CC(=O)CC[C@]4(C)[C@H]3CC[C@@]21C has inactive: 10.7%
# In activity change, negative = cytotoxicity, C[N+]1(C)[C@@H]2CC[C@H]1CC(OC(=O)C(CO)c1ccccc1)C2 (stereo not given in full) has inactive: 24.1%
